Reference: the supplement of paper PMC5949888
Most values lie at the floor of the assay. Slopes are relative: functional sequences can read slightly below zero.

system: Saccharomyces cerevisiae PS128 hsf1 delta, HSF1(1-493) fusion; experiment: growth estimate (transactivation domain function in HSF1 fusion, heat-shock survival) (a.u. (slope of normalised read count over time)); higher = stronger growth at 37°C, i.e. more transactivation activity; conditions: library: random library
Method: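 Random 60-nt DNA library encoding peptides of up to 20 aa, fused to the C-terminus of yeast HSF1 residues 1-493 (C-terminal TAD deleted) and expressed from the native HSF1 promoter on a CEN plasmid in hsf1-deleted S. cerevisiae PS128. Cells were selected at 37°C on -trp 5-FOA plates for 0, 2, 4, 6 and 8 days and amplicons were sequenced. Growth estimate is the slope of a robust linear fit of total-sum-normalised read counts (normalised to the first time point) over time, using at least 2 replicates. Sequences are classed functional (TAD activity) above a threshold of -0.13, set from stop-codon control sequences.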

Q: Which growth estimate does the source give for HGLVVLRVPASDLRTCGDIA here?
A: The growth estimate was less than -0.25.

Q: For HGPRDMLKSVSE, which growth estimate is on record?
A: The growth estimate was less than -0.25.

Q: For HGPRRLALDVEYRGDLA, which growth estimate is on record?
A: The growth estimate was less than -0.25.

Q: HGRARRRTLDGRVRPSSVS was tested. Which growth estimate did it give?
A: Its growth estimate is less than -0.25.

Q: For HGRLDPYTEDGGCYSEILVR, which growth estimate is on record?
A: Its growth estimate is less than -0.25.

Q: Which growth estimate does the source give for HGRWQEQRLFFGLLSYCRQD here?
A: Its growth estimate is less than -0.25.

Q: How did the growth estimate turn out when HGSIPTENLLVTGHHLWIGT was run?
A: The growth estimate was less than -0.25.

Q: Which growth estimate does the source give for HGSIRIRVVPTSFDLREWAR here?
A: The growth estimate was less than -0.25.

Q: HGTARLGRGRRQIV was tested. Which growth estimate did it give?
A: Its growth estimate is less than -0.25.

Q: With HGVGPGIISQT as the substance, how does the growth estimate read?
A: Its growth estimate is less than -0.25.

Q: With HGVTMRKDNHNQSIIYTPVS as the substance, how does the growth estimate read?
A: The growth estimate was less than -0.25.

Q: Which growth estimate does the source give for HGVVTTNNMFSYTSG here?
A: The growth estimate was less than -0.25.

Q: HHFASS was tested. Which growth estimate did it give?
A: Its growth estimate is less than -0.25.

Q: With HHGRAREPFLRGALGPVRHT as the substance, how does the growth estimate read?
A: The growth estimate was less than -0.25.

Q: With HHGVLLGHKGLYCEGLHSTN as the substance, how does the growth estimate read?
A: Its growth estimate is less than -0.25.

Q: For HHI, which growth estimate is on record?
A: The growth estimate was less than -0.25.

Q: For HHIFMTAPGTNNGRCAYRCI, which growth estimate is on record?
A: Its growth estimate is less than -0.25.

Q: HHIKLACM was tested. Which growth estimate did it give?
A: Its growth estimate is less than -0.25.

Q: HHKLHDVGHA was tested. Which growth estimate did it give?
A: Its growth estimate is less than -0.25.

Q: Which growth estimate does the source give for HIASDGKVQRRMSNDCLRLR here?
A: The growth estimate was less than -0.25.

Q: Which growth estimate does the source give for HICITTCWAQLRWHRTEQPG here?
A: The growth estimate was less than -0.25.

Q: How did the growth estimate turn out when HIEIIATRDVCSLSVRHNAT was run?
A: Its growth estimate is less than -0.25.

Q: With HIGRKVSFRWSRSDCRSIPV as the substance, how does the growth estimate read?
A: Its growth estimate is less than -0.25.

Q: With HIGVRWVPM as the substance, how does the growth estimate read?
A: The growth estimate was less than -0.25.

Q: How did the growth estimate turn out when HIGWASRHAVCKSTRGVSR was run?
A: Its growth estimate is less than -0.25.

Q: With HIKLCQSSIMGC as the substance, how does the growth estimate read?
A: Its growth estimate is less than -0.25.

Q: For HILSHPVLFVSSGLMHYVQG, which growth estimate is on record?
A: Its growth estimate is less than -0.25.

Q: Which growth estimate does the source give for HIPIIIPQGT here?
A: Its growth estimate is less than -0.25.

Q: With HIRV as the substance, how does the growth estimate read?
A: The growth estimate was less than -0.25.

Q: How did the growth estimate turn out when HISAPGHAT was run?
A: The growth estimate was -0.229.

Q: For HISLVPPLVPSG, which growth estimate is on record?
A: The growth estimate was less than -0.25.

Q: For HISSIARMIRSGWKLPPCEV, which growth estimate is on record?
A: The growth estimate was less than -0.25.

Q: HISWRLLQHRYAR was tested. Which growth estimate did it give?
A: The growth estimate was less than -0.25.

Q: With HITSHAVRLRR as the substance, how does the growth estimate read?
A: Its growth estimate is less than -0.25.

Q: HITSTVSATYRSASL was tested. Which growth estimate did it give?
A: The growth estimate was less than -0.25.

Q: HITTPRALLSTS was tested. Which growth estimate did it give?
A: The growth estimate was less than -0.25.

Q: With HIW as the substance, how does the growth estimate read?
A: The growth estimate was less than -0.25.

Q: For HIYGCRF, which growth estimate is on record?
A: The growth estimate was less than -0.25.

Q: For HIYSDKQNRGDRG, which growth estimate is on record?
A: The growth estimate was less than -0.25.

Q: HKDCYTEAVSLGHGFRASSA was tested. Which growth estimate did it give?
A: The growth estimate was less than -0.25.

Q: With HKGEDLTSEPRGFRSDWARA as the substance, how does the growth estimate read?
A: The growth estimate was less than -0.25.

Q: HKGRRGLLVARAVSWPVAQQ was tested. Which growth estimate did it give?
A: The growth estimate was less than -0.25.

Q: HKIGSGSKARVGSTPE was tested. Which growth estimate did it give?
A: The growth estimate was less than -0.25.

Q: For HKKVEWLGYGGTRNLSVISR, which growth estimate is on record?
A: The growth estimate was less than -0.25.

Q: HKPLTVD was tested. Which growth estimate did it give?
A: Its growth estimate is less than -0.25.

Q: How did the growth estimate turn out when HKR was run?
A: The growth estimate was less than -0.25.

Q: Which growth estimate does the source give for HKRGRQSRNVRVRSSSSVDT here?
A: The growth estimate was less than -0.25.

Q: HKSMLNGREVETPVHLGVCQ was tested. Which growth estimate did it give?
A: The growth estimate was less than -0.25.

Q: Which growth estimate does the source give for HKSPITLGTRSSNESLACCP here?
A: Its growth estimate is less than -0.25.

Q: HLAIRRVW was tested. Which growth estimate did it give?
A: Its growth estimate is less than -0.25.

Q: How did the growth estimate turn out when HLAVEVRCVPRIGGIFNAYV was run?
A: The growth estimate was less than -0.25.

Q: How did the growth estimate turn out when HLDGFVLVPRLVAVRDDMAP was run?
A: The growth estimate was less than -0.25.

Q: With HLDGHGCRDPCLLSTNKSPL as the substance, how does the growth estimate read?
A: The growth estimate was less than -0.25.

Q: How did the growth estimate turn out when HLDK was run?
A: Its growth estimate is less than -0.25.

Q: With HLFIIAYLYLALERRPHSLT as the substance, how does the growth estimate read?
A: The growth estimate was less than -0.25.

Q: For HLILPGR, which growth estimate is on record?
A: Its growth estimate is less than -0.25.

Q: For HLLCDCKRGWHGFK, which growth estimate is on record?
A: The growth estimate was less than -0.25.

Q: HLLFY was tested. Which growth estimate did it give?
A: Its growth estimate is less than -0.25.

Q: For HLLKP, which growth estimate is on record?
A: Its growth estimate is less than -0.25.

Q: With HLLKSLVA as the substance, how does the growth estimate read?
A: The growth estimate was less than -0.25.

Q: How did the growth estimate turn out when HLLSSKPSVRIARGAVAGWV was run?
A: The growth estimate was less than -0.25.

Q: Which growth estimate does the source give for HLNLGSVRALIQLASTLLAV here?
A: The growth estimate was less than -0.25.

Q: For HLNRGEVVLTFPGRATRILP, which growth estimate is on record?
A: The growth estimate was less than -0.25.

Q: Which growth estimate does the source give for HLNRWYFG here?
A: Its growth estimate is less than -0.25.

Q: HLNSAQLHGVWVRASKSFVY was tested. Which growth estimate did it give?
A: Its growth estimate is less than -0.25.

Q: With HLQRRTAH as the substance, how does the growth estimate read?
A: The growth estimate was less than -0.25.

Q: HLQRTGHRGSTTCS was tested. Which growth estimate did it give?
A: The growth estimate was less than -0.25.

Q: How did the growth estimate turn out when HLRSKTRCSEIRVNR was run?
A: Its growth estimate is less than -0.25.

Q: With HLYRRLYDPPC as the substance, how does the growth estimate read?
A: The growth estimate was less than -0.25.

Q: How did the growth estimate turn out when HMGPNTRLERGRG was run?
A: Its growth estimate is less than -0.25.

Q: With HMGQHCDPGVTSFFFSIGGV as the substance, how does the growth estimate read?
A: The growth estimate was less than -0.25.

Q: Which growth estimate does the source give for HMGYASKLANNGTVSHAEAE here?
A: The growth estimate was less than -0.25.

Q: With HMTTRTAILRT as the substance, how does the growth estimate read?
A: Its growth estimate is less than -0.25.

Q: With HNGLTNAKL as the substance, how does the growth estimate read?
A: Its growth estimate is less than -0.25.

Q: Which growth estimate does the source give for HNLRNWKGIY here?
A: Its growth estimate is less than -0.25.

Q: For HNPQS, which growth estimate is on record?
A: The growth estimate was less than -0.25.

Q: HNRFPSTEKVPPLRVDVPPW was tested. Which growth estimate did it give?
A: Its growth estimate is less than -0.25.

Q: How did the growth estimate turn out when HNRR was run?
A: Its growth estimate is less than -0.25.

Q: For HNSFGRPVPGAY, which growth estimate is on record?
A: The growth estimate was less than -0.25.

Q: With HPHQRLYAKMRGETTGEV as the substance, how does the growth estimate read?
A: Its growth estimate is less than -0.25.

Q: How did the growth estimate turn out when HPNSHHCLVS was run?
A: The growth estimate was less than -0.25.

Q: With HPPRLFS as the substance, how does the growth estimate read?
A: The growth estimate was less than -0.25.

Q: For HPQVKRTT, which growth estimate is on record?
A: Its growth estimate is less than -0.25.

Q: HPRDHEAPTQCL was tested. Which growth estimate did it give?
A: Its growth estimate is less than -0.25.

Q: HPRDSCPTPEGLDEVPSAQ was tested. Which growth estimate did it give?
A: Its growth estimate is less than -0.25.

Q: For HPRKNGVSMIAGEKGYCWGI, which growth estimate is on record?
A: Its growth estimate is less than -0.25.

Q: HPSPVA was tested. Which growth estimate did it give?
A: Its growth estimate is less than -0.25.

Q: How did the growth estimate turn out when HPSYPSPPPSTQAGIDISNH was run?
A: The growth estimate was less than -0.25.

Q: With HPTDSKGCRCAPQDGGLAH as the substance, how does the growth estimate read?
A: Its growth estimate is less than -0.25.

Q: For HPWPALEDSIHVLFSRRFEV, which growth estimate is on record?
A: Its growth estimate is less than -0.25.

Q: Which growth estimate does the source give for HQC here?
A: Its growth estimate is less than -0.25.

Q: Which growth estimate does the source give for HQFP here?
A: The growth estimate was less than -0.25.

Q: For HQLSWHRSVDTKGGFTVMRS, which growth estimate is on record?
A: The growth estimate was less than -0.25.

Q: How did the growth estimate turn out when HQQQNGTMKFSEVVEDIEAE was run?
A: The growth estimate was less than -0.25.

Q: HQRYCLVPSANYYVRVTCTY was tested. Which growth estimate did it give?
A: Its growth estimate is less than -0.25.
